Source: PubChem BioAssay AID1259405 (NCATS, 2018)
Purpose: 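Mouse-designed siRNAs used to find CHO productivity engineering targets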 (primary screen). Cell system: Chinese hamster CHO-K1 ovary cells with stable secreted eGFP expression. Reagent: single siRNA against mouse genes, 0.8 pmol siRNA per well (2 µl of 400 nM stock). Timing: 3 days. Measurement: 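Percent of the per-plate non-targeting control median for intracellular GFP per well by laser scanning cytometry and for cell viability by ATP luminescence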. Direction: GFP, % of control: higher = more GFP per well, higher productivity; viability (ATP), % of control: higher = more viable cells (more ATP). Call rule: 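Called active when intracellular GFP, relative to negative control, is at or above 120%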.
In all, the deposit lists about 50,000 reagents; below is an unselected part. Over the whole deposit, about 4,000 (8%) got an active call. 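Mouse siRNA library applied to hamster cells; one well for each siRNA.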 The numbers tell different reagents against one gene apart.

Fmo4 (flavin containing monooxygenase 4) #1
- GFP, % of control: 70.8
- viability (ATP), % of control: 73
- activity call: inactive

Fmo4 (flavin containing monooxygenase 4) #2
- GFP, % of control: 61
- viability (ATP), % of control: 43.5
- activity call: inactive

Fmo4 (flavin containing monooxygenase 4) #3
- GFP, % of control: 133
- viability (ATP), % of control: 106
- activity call: active

Uxs1 (UDP-glucuronate decarboxylase 1) #1
- GFP, % of control: 83.6
- viability (ATP), % of control: 71.4
- activity call: inactive

Uxs1 (UDP-glucuronate decarboxylase 1) #2
- GFP, % of control: 94.3
- viability (ATP), % of control: 82.9
- activity call: inactive

Ica1l (islet cell autoantigen 1-like) #1
- GFP, % of control: 83.6
- viability (ATP), % of control: 81.1
- activity call: inactive

Ica1l (islet cell autoantigen 1-like) #2
- GFP, % of control: 91.5
- viability (ATP), % of control: 75.9
- activity call: inactive

Ica1l (islet cell autoantigen 1-like) #3
- GFP, % of control: 50.9
- viability (ATP), % of control: 90
- activity call: inactive

Dock7 (dedicator of cytokinesis 7) #1
- GFP, % of control: 82.4
- viability (ATP), % of control: 50.9
- activity call: inactive

Dock7 (dedicator of cytokinesis 7) #2
- GFP, % of control: 76.3
- viability (ATP), % of control: 86.7
- activity call: inactive

Dock7 (dedicator of cytokinesis 7) #3
- GFP, % of control: 66.5
- viability (ATP), % of control: 59.9
- activity call: inactive

Laid out differently: results already given.
| gene | reagent no. | GFP, % of control | viability (ATP), % of control | activity call |
| --- | --- | --- | --- | --- |
| Fmo4 (flavin containing monooxygenase 4) | 2 | 61 | 43.5 | inactive |
| Fmo4 (flavin containing monooxygenase 4) | 3 | 133 | 106 | active |
| Uxs1 (UDP-glucuronate decarboxylase 1) | 1 | 83.6 | 71.4 | inactive |
| Uxs1 (UDP-glucuronate decarboxylase 1) | 2 | 94.3 | 82.9 | inactive |

More records follow.
Amelx (amelogenin, X-linked) #1
- GFP, % of control: 137
- viability (ATP), % of control: 85.3
- activity call: active

Amelx (amelogenin, X-linked) #2
- GFP, % of control: 36.9
- viability (ATP), % of control: 22.4
- activity call: inactive

Amelx (amelogenin, X-linked) #3
- GFP, % of control: 54.1
- viability (ATP), % of control: 62.4
- activity call: inactive

Mettl22 (methyltransferase 22, Kin17 lysine) #1
- GFP, % of control: 113
- viability (ATP), % of control: 153
- activity call: inactive

Mettl22 (methyltransferase 22, Kin17 lysine) #2
- GFP, % of control: 56.2
- viability (ATP), % of control: 87.5
- activity call: inactive

Mettl22 (methyltransferase 22, Kin17 lysine) #3
- GFP, % of control: 96.4
- viability (ATP), % of control: 139
- activity call: inactive

Nefm (neurofilament, medium polypeptide) #1
- GFP, % of control: 74.4
- viability (ATP), % of control: 75.8
- activity call: inactive

Nefm (neurofilament, medium polypeptide) #2
- GFP, % of control: 50.9
- viability (ATP), % of control: 55.7
- activity call: inactive

Nefm (neurofilament, medium polypeptide) #3
- GFP, % of control: 111
- viability (ATP), % of control: 70.5
- activity call: inactive

Gdpd1 (glycerophosphodiester phosphodiesterase domain containing 1) #1
- GFP, % of control: 109
- viability (ATP), % of control: 79.5
- activity call: inactive

Gdpd1 (glycerophosphodiester phosphodiesterase domain containing 1) #2
- GFP, % of control: 126
- viability (ATP), % of control: 87.2
- activity call: active

Gdpd1 (glycerophosphodiester phosphodiesterase domain containing 1) #3
- GFP, % of control: 71.9
- viability (ATP), % of control: 53.3
- activity call: inactive

Slc25a13 #1
- GFP, % of control: 104
- viability (ATP), % of control: 105
- activity call: inactive

Slc25a13 #2
- GFP, % of control: 114
- viability (ATP), % of control: 85.4
- activity call: inactive

Slc25a13 #3
- GFP, % of control: 107
- viability (ATP), % of control: 97.7
- activity call: inactive

Brsk2 (BR serine/threonine kinase 2)
- GFP, % of control: 140
- viability (ATP), % of control: 79.6
- activity call: active
